Test results taken from PMC8032900.
These are yes or no findings as the source states them, for the method shown. Binding calls can cover weak binding; strength is not graded here.

T1: AtNFY-B2 (NUCLEAR FACTOR-Y subunit B2), Arabidopsis thaliana (A. thaliana) (UniProt Q9FGJ3)
T1 sequence: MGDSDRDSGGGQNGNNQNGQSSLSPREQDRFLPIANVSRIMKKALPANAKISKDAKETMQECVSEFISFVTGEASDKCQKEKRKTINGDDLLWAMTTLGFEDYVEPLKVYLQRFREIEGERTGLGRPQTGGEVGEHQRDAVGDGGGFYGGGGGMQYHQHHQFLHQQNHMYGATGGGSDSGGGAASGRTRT


Experiments:
Assay in all cases: two-hybrid; GAL4 system; BD fusions (pDEST32) in PJ69-4α mated with AD fusions (pDEST22) in PJ69-4a; diploids spotted on SD-LWH without or with 1, 2, 10, 25, 50, 100 mM 3AT, 10 days at 28°C, triplicate; growth scored 0 to 3; every protein tested as BD and as AD fusion (target = BD fusion, binder = AD fusion); Figure 6A at 2 mM 3AT, network of Figure 6B at 10 mM 3AT
[1] = target: T1, AtNFY-B2 (NUCLEAR FACTOR-Y subunit B2), Arabidopsis thaliana (A. thaliana)
[2] = target: M. truncatula NF-YC-like protein Medtr3g099180 (Medicago truncatula)
[3] = target: MtFE (Medtr6g444980), Medicago truncatula FE homolog (Medicago truncatula)

Row | binding [1] | binding [2] | binding [3] | Molecule
1 | binds |  |  | M. truncatula NF-YC-like protein Medtr3g099180 (Medicago truncatula)
2 |  | binds | binds | AtNFY-B2 (NUCLEAR FACTOR-Y subunit B2), Arabidopsis thaliana (protein, UniProt Q9FGJ3 1-190) MGDSDRDSGGGQNGNNQNGQSSLSPREQDRFLPIANVSRIMKKALPANAKISKDAKETMQECVSEFISFVTGEASDKCQKEKRKTINGDDLLWAMTTLGFEDYVEPLKVYLQRFREIEGERTGLGRPQTGGEVGEHQRDAVGDGGGFYGGGGGMQYHQHHQFLHQQNHMYGATGGGSDSGGGAASGRTRT
